Measured values published in patent US6897054.
These are yes or no findings as the source states them, for the method shown. Binding seen in cells or lysates may run through a third protein. Some entries that bind do so weakly or less than the wild type.

Chains of the proteins cited; added tags and fusions are not shown.
UniProt O00311: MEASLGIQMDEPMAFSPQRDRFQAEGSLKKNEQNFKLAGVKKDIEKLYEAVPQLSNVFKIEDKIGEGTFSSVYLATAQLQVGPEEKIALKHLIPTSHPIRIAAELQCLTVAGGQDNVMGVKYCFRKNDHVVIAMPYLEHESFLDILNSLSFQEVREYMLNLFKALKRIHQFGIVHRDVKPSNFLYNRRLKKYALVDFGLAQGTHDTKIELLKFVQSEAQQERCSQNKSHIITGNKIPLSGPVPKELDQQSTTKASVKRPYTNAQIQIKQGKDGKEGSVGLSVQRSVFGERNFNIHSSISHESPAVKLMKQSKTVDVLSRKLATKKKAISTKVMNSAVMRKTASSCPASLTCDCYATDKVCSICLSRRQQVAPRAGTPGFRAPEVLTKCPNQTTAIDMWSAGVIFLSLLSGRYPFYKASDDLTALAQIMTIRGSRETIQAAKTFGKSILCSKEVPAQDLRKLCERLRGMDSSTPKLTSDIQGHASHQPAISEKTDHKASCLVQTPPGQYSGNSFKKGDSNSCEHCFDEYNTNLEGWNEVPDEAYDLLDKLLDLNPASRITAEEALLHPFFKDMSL

B1: human H37 protein (protein)
chain: MNSGAMRIHSKGHFQGGIQVKNEKNRPSLKSLKTDNRPEKSKCKPLWGKVFYLDLPSVTISEKLQKDIKDLGGRVEEFLSKDISYLISNKKEAKFAQTLGRISPVPSPESAYTAETTSPHPSHDGSSFKSPDTVCLSRGKLLVEKAIKDHDFIPSNSILSNALSWGVKILHIDDIRYYIEQKKKELYLLKKSSTSVRDGGKRVGSGAQKTRTGRLKKPFVKVEDMSQLYRPFYLQLTNMPFINYSIQKPCSPFDVDKPSSMQKQTQVKLRIQTDGDKYGGTSIQLQLKEKKKKGYCECCLQKYEDLETHLLSEQHRNFAQSNQYQVVDDIVSKLVFDFVEYEKDTPKKKRIKYSVGSLSPVSASVLKKTEQKEKVELQHISQKDCQEDDTTVKEQNFLYKETQETEKKLLFISEPIPHPSNELRGLNEKMSNKCSMLSTAEDDIRQNFTQLPLHKNKQECILDISEHTLSENDLEELRVDHYKCNIQASVHVSDFSTDNSGSQPKQKSDTVLFPAKDLKEKDLHSIFTHDSGLITINSSQEHLTVQAKAPFHTPPEEPNECDFKNMDSLPSGKIHRKVKIILGRNRKENLEPNAEFDKRTEFITQEENRICSSPVQSLLDLFQTSEEKSEFLGFTSYTEKSGICNVLDIWEEENSDNLLTAFFSSPSTSTFTGF
B2: H37 deletion derivative deltaB expressed in COS7 cells (protein)
chain: MNSGAMRIHSKGHFQGGIQVKNEKNRPSLKSLKTDNRPEKSKCKPLWGKVFYLDLPSVTISEKLQKDIKDLGGRVEEFLSKDISYLISNKKEAKFAQTLGRISPVPSPESAYTAETTSPHPSHDGSSFKSPDTVCLSRGKLLVEKAIKDHDFIPSNSILSNALSWGVKILHIDDIRYYIEQKKKELYLLKKSSTSVRDGGKRVGSGAQKTRTGRLKKPFVKVEDMSQLYRPFYLQLTNMPFINYSIQKPCSPFDVDKPSSMQKQTQVKLRIQTDGDKYGGTSIQLQLKEKKKKGYCECCLQKYED
B3: H37 deletion derivative deltaN2 expressed in COS7 cells (protein)
chain: DKPSSMQKQTQVKLRIQTDGDKYGGTSIQLQLKEKKKKGYCECCLQKYEDLETHLLSEQHRNFAQSNQYQVVDDIVSKLVFDFVEYEKDTPKKKRIKYSVGSLSPVSASVLKKTEQKEKVELQHISQKDCQEDDTTVKEQNFLYKETQETEKKLLFISEPIPHPSNELRGLNEKMSNKCSMLSTAEDDIRQNFTQLPLHKNKQECILDISEHTLSENDLEELRVDHYKCNIQASVHVSDFSTDNSGSQPKQKSDTVLFPAKDLKEKDLHSIFTHDSGLITINSSQEHLTVQAKAPFHTPPEEPNECDFKNMDSLPSGKIHRKVKIILGRNRKENLEPNAEFDKRTEFITQEENRICSSPVQSLLDLFQTSEEKSEFLGFTSYTEKSGICNVLDIWEEENSDNLLTAFFSSPSTSTFTGF

Tests used:
huCdc7 (human) [1] = target: huCdc7 (human) (UniProt O00311); assay: co-immunoprecipitation of intrinsic proteins from CEM and HeLa cells
huCdc7 (human) [2] = target: huCdc7 (human) (UniProt O00311); assay: co-immunoprecipitation of intrinsic proteins from CEM cell extracts with anti-H37Cpep, huCdc7 immunoblot
huCdc7 (human) [3] = target: huCdc7 (human) (UniProt O00311); assay: co-immunoprecipitation from co-transfected COS7 cells

Binder | binding (huCdc7 (human) [1]) | binding (huCdc7 (human) [2]) | binding (huCdc7 (human) [3])
B1 | binds | binds | 
B2 |  |  | binds
B3 |  |  | binds
